# Assay results

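Malaria parasite (P. falciparum) lines kept in red blood cells; parasite DNA is measured by SYBR Green fluorescence after lysis, 72 h after compound addition. Each compound was titrated across a series from about 0.000037 to 29 µM. The number is the fitted AC50, the concentration giving a half-maximal change in signal; a lower value means higher potency, whether the curve shows a decrease or an increase. Calls follow the curve class and fit quality: every row here is inconclusive, covering signal-raising curves and weak, poorly fitted, partial or highest-dose-only inhibition curves.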

Values are in µM. All entries here are filed as inconclusive. Only part of the assay is shown, chiefly results filed as inconclusive. A potency from a partial, single-point or poor curve is only a rough figure. Some entries filed as inconclusive have a full curve. The first word of each remark tells which way the curve ran; it can be opposite to the aim of the assay.

structure	condition	fitted potency (µM)	curve as filed
COC1CC(O[C@H]2/C(C)=C/CC3CC(C[C@]4(CCC(C)C(C5CCCCC5)O4)O3)OC(=O)[C@H]3C=C(C)/C(=N/O)C4OC/C(=C\C=C\[C@@H]2C)[C@@]43O)OC(C)C1O (stereo partly drawn)	CP217	17.78	inhibitor, single point
COC1CC(O[C@H]2/C(C)=C/CC3CC(C[C@]4(CCC(C)C(C5CCCCC5)O4)O3)OC(=O)[C@H]3C=C(C)/C(=N/O)C4OC/C(=C\C=C\[C@@H]2C)[C@@]43O)OC(C)C1O (stereo partly drawn)	SC27B	0.0079	activator
COC1CC(O[C@H]2/C(C)=C/CC3CC(C[C@]4(CCC(C)C(C5CCCCC5)O4)O3)OC(=O)[C@H]3C=C(C)/C(=N/O)C4OC/C(=C\C=C\[C@@H]2C)[C@@]43O)OC(C)C1O (stereo partly drawn)	CP256	11.22	inhibitor, single point
COC1CC(O[C@H]2/C(C)=C/CC3CC(C[C@]4(CCC(C)C(C5CCCCC5)O4)O3)OC(=O)[C@H]3C=C(C)/C(=N/O)C4OC/C(=C\C=C\[C@@H]2C)[C@@]43O)OC(C)C1O (stereo partly drawn)	3D7	17.78	inhibitor, single point
COC1CC(O[C@H]2/C(C)=C/CC3CC(C[C@]4(CCC(C)C(C5CCCCC5)O4)O3)OC(=O)[C@H]3C=C(C)/C(=N/O)C4OC/C(=C\C=C\[C@@H]2C)[C@@]43O)OC(C)C1O (stereo partly drawn)	GB4	9.528	inhibitor, partial curve, poor fit
COC1CC(O[C@H]2/C(C)=C/CC3CC(C[C@]4(CCC(C)C(C5CCCCC5)O4)O3)OC(=O)[C@H]3C=C(C)/C(=N/O)C4OC/C(=C\C=C\[C@@H]2C)[C@@]43O)OC(C)C1O (stereo partly drawn)	AA1029	17.78	inhibitor, single point
COC1CC(O[C@H]2/C(C)=C/CC3CC(C[C@]4(CCC(C)C(C5CCCCC5)O4)O3)OC(=O)[C@H]3C=C(C)/C(=N/O)C4OC/C(=C\C=C\[C@@H]2C)[C@@]43O)OC(C)C1O (stereo partly drawn)	ECU	14.13	inhibitor, single point
COC1CC(O[C@H]2/C(C)=C/CC3CC(C[C@]4(CCC(C)C(C5CCCCC5)O4)O3)OC(=O)[C@H]3C=C(C)/C(=N/O)C4OC/C(=C\C=C\[C@@H]2C)[C@@]43O)OC(C)C1O (stereo partly drawn)	CP286	17.78	inhibitor, single point
COC1CC(O[C@H]2/C(C)=C/CC3CC(C[C@]4(CCC(C)C(C5CCCCC5)O4)O3)OC(=O)[C@H]3C=C(C)/C(=N/O)C4OC/C(=C\C=C\[C@@H]2C)[C@@]43O)OC(C)C1O (stereo partly drawn)	JCK	17.78	inhibitor, single point
COC1CC(O[C@H]2/C(C)=C/CC3CC(C[C@]4(CCC(C)C(C5CCCCC5)O4)O3)OC(=O)[C@H]3C=C(C)/C(=N/O)C4OC/C(=C\C=C\[C@@H]2C)[C@@]43O)OC(C)C1O (stereo partly drawn)	P93_24	15.85	inhibitor, single point
COC1CC(O[C@H]2/C(C)=C/CC3CC(C[C@]4(CCC(C)C(C5CCCCC5)O4)O3)OC(=O)[C@H]3C=C(C)/C(=N/O)C4OC/C(=C\C=C\[C@@H]2C)[C@@]43O)OC(C)C1O (stereo partly drawn)	CP252	17.78	inhibitor, single point
COC1CC(O[C@H]2/C(C)=C/CC3CC(C[C@]4(CCC(C)C(C5CCCCC5)O4)O3)OC(=O)[C@H]3C=C(C)/C(=N/O)C4OC/C(=C\C=C\[C@@H]2C)[C@@]43O)OC(C)C1O (stereo partly drawn)	CP238	17.78	inhibitor, single point
COC1CC(O[C@H]2/C(C)=C/CC3CC(C[C@]4(CCC(C)C(C5CCCCC5)O4)O3)OC(=O)[C@H]3C=C(C)/C(=N/O)C4OC/C(=C\C=C\[C@@H]2C)[C@@]43O)OC(C)C1O (stereo partly drawn)	FAB9	17.78	inhibitor, single point
COC1CC(O[C@H]2/C(C)=C/CC3CC(C[C@]4(CCC(C)C(C5CCCCC5)O4)O3)OC(=O)[C@H]3C=C(C)/C(=N/O)C4OC/C(=C\C=C\[C@@H]2C)[C@@]43O)OC(C)C1O (stereo partly drawn)	DIV17	19.01	inhibitor, single point
COC1CC(O[C@H]2/C(C)=C/CC3CC(C[C@]4(CCC(C)C(C5CCCCC5)O4)O3)OC(=O)[C@H]3C=C(C)/C(=N/O)C4OC/C(=C\C=C\[C@@H]2C)[C@@]43O)OC(C)C1O (stereo partly drawn)	AS120	17.78	inhibitor, single point
COC1CC(O[C@H]2/C(C)=C/CC3CC(C[C@]4(CCC(C)C(C5CCCCC5)O4)O3)OC(=O)[C@H]3C=C(C)/C(=N/O)C4OC/C(=C\C=C\[C@@H]2C)[C@@]43O)OC(C)C1O (stereo partly drawn)	CP185	11.22	inhibitor, single point
COC1CC(O[C@H]2/C(C)=C/CC3CC(C[C@]4(CCC(C)C(C5CCCCC5)O4)O3)OC(=O)[C@H]3C=C(C)/C(=N/O)C4OC/C(=C\C=C\[C@@H]2C)[C@@]43O)OC(C)C1O (stereo partly drawn)	HB3	12.59	inhibitor, single point
COC1CC(O[C@H]2/C(C)=C/CC3CC(C[C@]4(CCC(C)C(C5CCCCC5)O4)O3)OC(=O)[C@H]3C=C(C)/C(=N/O)C4OC/C(=C\C=C\[C@@H]2C)[C@@]43O)OC(C)C1O (stereo partly drawn)	TAB165	12.59	inhibitor, partial curve, poor fit
COC1CC(O[C@H]2/C(C)=C/CC3CC(C[C@]4(CCC(C)C(C5CCCCC5)O4)O3)OC(=O)[C@H]3C=C(C)/C(=N/O)C4OC/C(=C\C=C\[C@@H]2C)[C@@]43O)OC(C)C1O (stereo partly drawn)	ATS189	17.78	inhibitor, single point
N=C(N=C(N)N)N1CCOCC1	CP329	0.0002	activator, full curve, poor fit
N=C(N=C(N)N)N1CCOCC1	AS120	0.0009	inhibitor, full curve, poor fit
N=C(N=C(N)N)N1CCOCC1	TAB165	0.1995	inhibitor, full curve, poor fit
NCC(O)c1ccc(O)cc1 (stereo not drawn)	DIV14	2.133	activator, full curve, poor fit
NCC(O)c1ccc(O)cc1 (stereo not drawn)	CP266	0.151	inhibitor, full curve, poor fit
NCC(O)c1ccc(O)cc1 (stereo not drawn)	W2	0.0239	inhibitor, partial curve, poor fit
CC1OC(O[C@H]2C[C@@H](O)[C@]3(CO)[C@@H]4C(CC[C@]3(O)C2)[C@@]2(O)CC[C@H](C3=CC(=O)OC3)[C@@]2(C)C[C@H]4O)C(O)C(O)C1O (stereo partly drawn)	W2	0.0027	inhibitor, full curve, poor fit
CC1OC(O[C@H]2C[C@@H](O)[C@]3(CO)[C@@H]4C(CC[C@]3(O)C2)[C@@]2(O)CC[C@H](C3=CC(=O)OC3)[C@@]2(C)C[C@H]4O)C(O)C(O)C1O (stereo partly drawn)	PC15	0.0708	inhibitor, full curve
CC1OC(O[C@H]2C[C@@H](O)[C@]3(CO)[C@@H]4C(CC[C@]3(O)C2)[C@@]2(O)CC[C@H](C3=CC(=O)OC3)[C@@]2(C)C[C@H]4O)C(O)C(O)C1O (stereo partly drawn)	PC26	0.0338	inhibitor, full curve
Clc1ccc(COC(Cn2ccnc2)c2ccc(Cl)cc2Cl)c(Cl)c1 (stereo not drawn)	CP291	6.424	inhibitor, single point
Clc1ccc(COC(Cn2ccnc2)c2ccc(Cl)cc2Cl)c(Cl)c1 (stereo not drawn)	ATS189	5.012	inhibitor, single point
Clc1ccc(COC(Cn2ccnc2)c2ccc(Cl)cc2Cl)c(Cl)c1 (stereo not drawn)	CP315	8.087	inhibitor, single point
Clc1ccc(COC(Cn2ccnc2)c2ccc(Cl)cc2Cl)c(Cl)c1 (stereo not drawn)	CP256	7.08	inhibitor, single point
Clc1ccc(COC(Cn2ccnc2)c2ccc(Cl)cc2Cl)c(Cl)c1 (stereo not drawn)	CP260	8.912	inhibitor, single point
Clc1ccc(COC(Cn2ccnc2)c2ccc(Cl)cc2Cl)c(Cl)c1 (stereo not drawn)	CP335	5.726	inhibitor, single point
Clc1ccc(COC(Cn2ccnc2)c2ccc(Cl)cc2Cl)c(Cl)c1 (stereo not drawn)	C2A	10	inhibitor, single point
Clc1ccc(COC(Cn2ccnc2)c2ccc(Cl)cc2Cl)c(Cl)c1 (stereo not drawn)	CP268	8.087	inhibitor, single point
Clc1ccc(COC(Cn2ccnc2)c2ccc(Cl)cc2Cl)c(Cl)c1 (stereo not drawn)	CP192	5.103	inhibitor, single point
Clc1ccc(COC(Cn2ccnc2)c2ccc(Cl)cc2Cl)c(Cl)c1 (stereo not drawn)	CP185	8.912	inhibitor, single point

Source: PubChem BioAssay AID504749 (NCATS, 2011).